# In the supplement of paper PMC7666118:
# Sequences of proteins named here, by UniProt entry; tags and fusion partners are left off. A change or cut given only in a name is not applied to a line headed by its entry.
# UniProt O43396: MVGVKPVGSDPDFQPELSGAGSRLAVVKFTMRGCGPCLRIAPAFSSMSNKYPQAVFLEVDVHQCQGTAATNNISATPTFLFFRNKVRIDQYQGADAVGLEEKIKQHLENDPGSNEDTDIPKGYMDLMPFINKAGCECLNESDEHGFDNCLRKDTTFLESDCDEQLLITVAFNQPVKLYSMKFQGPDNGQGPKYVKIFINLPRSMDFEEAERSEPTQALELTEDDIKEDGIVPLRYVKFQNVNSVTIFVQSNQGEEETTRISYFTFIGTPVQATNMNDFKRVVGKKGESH
# UniProt O43709: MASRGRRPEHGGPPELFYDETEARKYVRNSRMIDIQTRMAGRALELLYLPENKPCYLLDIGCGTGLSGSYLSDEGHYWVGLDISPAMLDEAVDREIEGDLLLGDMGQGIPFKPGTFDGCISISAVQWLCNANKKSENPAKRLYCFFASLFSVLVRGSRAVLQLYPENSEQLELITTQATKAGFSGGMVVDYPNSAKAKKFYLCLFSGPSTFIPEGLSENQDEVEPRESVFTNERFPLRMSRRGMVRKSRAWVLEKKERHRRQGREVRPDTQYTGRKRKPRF
# UniProt P45974: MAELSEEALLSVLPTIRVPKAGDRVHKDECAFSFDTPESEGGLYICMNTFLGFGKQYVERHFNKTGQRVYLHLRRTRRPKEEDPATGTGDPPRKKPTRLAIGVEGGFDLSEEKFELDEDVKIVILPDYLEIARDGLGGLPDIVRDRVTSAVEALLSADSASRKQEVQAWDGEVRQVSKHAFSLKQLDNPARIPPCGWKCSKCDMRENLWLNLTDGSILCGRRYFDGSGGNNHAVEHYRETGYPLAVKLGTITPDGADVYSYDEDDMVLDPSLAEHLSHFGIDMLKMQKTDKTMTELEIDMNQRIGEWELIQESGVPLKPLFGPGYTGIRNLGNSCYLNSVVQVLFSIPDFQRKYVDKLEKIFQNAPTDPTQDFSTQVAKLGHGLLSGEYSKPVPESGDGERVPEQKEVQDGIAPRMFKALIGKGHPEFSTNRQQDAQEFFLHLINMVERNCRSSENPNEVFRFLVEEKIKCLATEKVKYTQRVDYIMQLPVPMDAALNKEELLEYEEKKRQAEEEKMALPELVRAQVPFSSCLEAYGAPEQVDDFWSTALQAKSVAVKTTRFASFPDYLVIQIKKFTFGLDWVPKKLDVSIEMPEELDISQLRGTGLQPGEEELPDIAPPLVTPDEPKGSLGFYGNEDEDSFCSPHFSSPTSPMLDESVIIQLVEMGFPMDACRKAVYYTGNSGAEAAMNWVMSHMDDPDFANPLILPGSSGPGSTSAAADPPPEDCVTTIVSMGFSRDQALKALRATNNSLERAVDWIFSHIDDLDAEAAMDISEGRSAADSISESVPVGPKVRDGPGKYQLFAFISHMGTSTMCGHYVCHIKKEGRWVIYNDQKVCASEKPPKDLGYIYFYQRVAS
# UniProt P07919: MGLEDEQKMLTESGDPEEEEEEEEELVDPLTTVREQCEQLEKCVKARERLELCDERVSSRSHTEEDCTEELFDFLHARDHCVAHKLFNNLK
# UniProt Q9BTM9: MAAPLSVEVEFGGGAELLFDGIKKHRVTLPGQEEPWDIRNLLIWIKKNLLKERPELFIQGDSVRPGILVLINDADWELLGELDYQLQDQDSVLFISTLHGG
# UniProt P61758, whole entry: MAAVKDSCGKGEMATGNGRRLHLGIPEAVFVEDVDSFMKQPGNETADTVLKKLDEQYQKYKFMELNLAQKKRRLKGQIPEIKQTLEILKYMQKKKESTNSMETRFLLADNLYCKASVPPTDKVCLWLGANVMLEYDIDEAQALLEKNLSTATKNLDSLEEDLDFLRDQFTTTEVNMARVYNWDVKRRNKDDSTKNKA
# UniProt Q3B726, whole entry: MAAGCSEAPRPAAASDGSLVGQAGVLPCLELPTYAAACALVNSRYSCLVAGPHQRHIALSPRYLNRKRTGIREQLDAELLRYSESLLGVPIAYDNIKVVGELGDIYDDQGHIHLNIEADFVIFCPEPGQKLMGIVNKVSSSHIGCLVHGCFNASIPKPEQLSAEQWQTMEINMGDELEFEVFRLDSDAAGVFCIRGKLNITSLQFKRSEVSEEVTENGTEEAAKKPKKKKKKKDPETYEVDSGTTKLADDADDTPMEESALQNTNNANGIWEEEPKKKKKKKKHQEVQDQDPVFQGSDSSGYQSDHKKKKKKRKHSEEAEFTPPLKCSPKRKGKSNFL
# UniProt P14927: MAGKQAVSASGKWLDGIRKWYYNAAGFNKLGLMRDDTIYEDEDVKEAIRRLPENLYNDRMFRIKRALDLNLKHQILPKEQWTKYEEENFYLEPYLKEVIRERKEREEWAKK
# UniProt Q9Y3C8: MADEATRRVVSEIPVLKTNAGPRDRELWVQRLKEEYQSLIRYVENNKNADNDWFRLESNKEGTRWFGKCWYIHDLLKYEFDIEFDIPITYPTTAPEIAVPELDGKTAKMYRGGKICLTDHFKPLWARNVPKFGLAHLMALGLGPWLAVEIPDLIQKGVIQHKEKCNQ
# UniProt Q99757: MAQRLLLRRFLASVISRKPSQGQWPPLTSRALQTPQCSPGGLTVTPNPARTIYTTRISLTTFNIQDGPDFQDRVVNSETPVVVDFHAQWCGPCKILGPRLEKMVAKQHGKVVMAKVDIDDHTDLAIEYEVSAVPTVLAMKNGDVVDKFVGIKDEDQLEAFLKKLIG
# UniProt Q13107: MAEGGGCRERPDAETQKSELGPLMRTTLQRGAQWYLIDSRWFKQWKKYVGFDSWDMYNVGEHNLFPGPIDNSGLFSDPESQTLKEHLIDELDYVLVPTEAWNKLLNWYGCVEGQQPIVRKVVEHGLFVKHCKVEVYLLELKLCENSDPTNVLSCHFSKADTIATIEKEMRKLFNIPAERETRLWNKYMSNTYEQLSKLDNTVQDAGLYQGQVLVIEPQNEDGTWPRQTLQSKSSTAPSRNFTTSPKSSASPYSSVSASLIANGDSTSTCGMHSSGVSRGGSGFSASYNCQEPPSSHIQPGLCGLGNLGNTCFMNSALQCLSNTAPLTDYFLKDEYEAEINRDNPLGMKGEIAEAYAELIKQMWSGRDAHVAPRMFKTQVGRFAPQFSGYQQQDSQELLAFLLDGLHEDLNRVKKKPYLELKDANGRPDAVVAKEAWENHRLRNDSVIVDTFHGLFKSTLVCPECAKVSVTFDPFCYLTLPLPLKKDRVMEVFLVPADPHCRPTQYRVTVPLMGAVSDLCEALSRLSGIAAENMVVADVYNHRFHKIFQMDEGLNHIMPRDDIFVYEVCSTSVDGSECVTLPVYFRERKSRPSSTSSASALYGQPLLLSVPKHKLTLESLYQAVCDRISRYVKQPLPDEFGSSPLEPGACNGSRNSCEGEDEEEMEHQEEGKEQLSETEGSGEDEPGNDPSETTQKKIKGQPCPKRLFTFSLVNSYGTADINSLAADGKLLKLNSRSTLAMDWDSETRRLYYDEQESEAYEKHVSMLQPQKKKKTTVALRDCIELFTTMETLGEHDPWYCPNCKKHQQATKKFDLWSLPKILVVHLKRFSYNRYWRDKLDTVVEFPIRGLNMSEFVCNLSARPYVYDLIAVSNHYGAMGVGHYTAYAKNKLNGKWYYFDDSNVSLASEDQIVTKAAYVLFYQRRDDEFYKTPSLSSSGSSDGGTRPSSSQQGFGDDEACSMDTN
# UniProt Q96RT8, whole entry: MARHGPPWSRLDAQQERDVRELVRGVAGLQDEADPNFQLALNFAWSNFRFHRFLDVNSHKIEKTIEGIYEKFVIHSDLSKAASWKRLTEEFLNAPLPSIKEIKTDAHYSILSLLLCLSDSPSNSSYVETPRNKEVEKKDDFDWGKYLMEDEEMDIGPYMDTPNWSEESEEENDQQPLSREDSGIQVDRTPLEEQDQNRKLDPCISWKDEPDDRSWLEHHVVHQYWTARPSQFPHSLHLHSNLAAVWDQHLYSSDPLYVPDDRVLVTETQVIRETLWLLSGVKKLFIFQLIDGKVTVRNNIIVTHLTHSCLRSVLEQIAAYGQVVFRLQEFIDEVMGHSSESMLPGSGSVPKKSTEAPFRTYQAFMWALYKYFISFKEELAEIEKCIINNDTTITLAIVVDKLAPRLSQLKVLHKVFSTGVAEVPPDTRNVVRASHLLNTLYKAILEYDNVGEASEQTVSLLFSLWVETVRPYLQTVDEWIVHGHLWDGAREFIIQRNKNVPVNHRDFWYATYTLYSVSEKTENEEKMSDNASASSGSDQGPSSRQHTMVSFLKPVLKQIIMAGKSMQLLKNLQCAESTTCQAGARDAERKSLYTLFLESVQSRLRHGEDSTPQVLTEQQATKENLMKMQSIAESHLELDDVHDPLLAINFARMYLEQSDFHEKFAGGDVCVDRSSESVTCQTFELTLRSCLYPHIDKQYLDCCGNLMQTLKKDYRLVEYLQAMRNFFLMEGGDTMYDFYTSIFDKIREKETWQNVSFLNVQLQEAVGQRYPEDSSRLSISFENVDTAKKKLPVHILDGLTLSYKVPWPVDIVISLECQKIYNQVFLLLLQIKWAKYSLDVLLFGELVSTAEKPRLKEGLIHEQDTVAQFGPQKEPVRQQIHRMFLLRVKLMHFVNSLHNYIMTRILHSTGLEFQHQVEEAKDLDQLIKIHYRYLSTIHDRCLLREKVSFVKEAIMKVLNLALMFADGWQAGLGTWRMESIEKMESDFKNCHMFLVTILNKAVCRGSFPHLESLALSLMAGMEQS
# UniProt Q16222: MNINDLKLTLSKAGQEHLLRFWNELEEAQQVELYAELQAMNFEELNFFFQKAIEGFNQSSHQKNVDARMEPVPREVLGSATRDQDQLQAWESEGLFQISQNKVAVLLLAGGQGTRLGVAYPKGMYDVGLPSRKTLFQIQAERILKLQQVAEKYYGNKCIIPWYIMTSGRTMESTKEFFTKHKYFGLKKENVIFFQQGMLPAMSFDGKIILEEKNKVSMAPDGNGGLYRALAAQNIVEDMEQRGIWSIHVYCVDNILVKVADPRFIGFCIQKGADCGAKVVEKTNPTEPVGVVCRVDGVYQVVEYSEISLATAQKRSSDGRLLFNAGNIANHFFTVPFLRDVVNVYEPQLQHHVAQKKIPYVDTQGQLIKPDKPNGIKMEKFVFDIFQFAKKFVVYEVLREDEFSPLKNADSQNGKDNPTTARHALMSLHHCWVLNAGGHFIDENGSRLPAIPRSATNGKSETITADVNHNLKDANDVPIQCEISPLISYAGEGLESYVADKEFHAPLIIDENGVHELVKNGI
# UniProt Q9NX01: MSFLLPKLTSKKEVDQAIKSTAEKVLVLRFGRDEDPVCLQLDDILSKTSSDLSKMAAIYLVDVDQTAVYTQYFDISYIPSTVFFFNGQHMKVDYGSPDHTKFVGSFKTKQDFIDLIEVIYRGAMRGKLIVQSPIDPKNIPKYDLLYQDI
# UniProt Q9NRW7: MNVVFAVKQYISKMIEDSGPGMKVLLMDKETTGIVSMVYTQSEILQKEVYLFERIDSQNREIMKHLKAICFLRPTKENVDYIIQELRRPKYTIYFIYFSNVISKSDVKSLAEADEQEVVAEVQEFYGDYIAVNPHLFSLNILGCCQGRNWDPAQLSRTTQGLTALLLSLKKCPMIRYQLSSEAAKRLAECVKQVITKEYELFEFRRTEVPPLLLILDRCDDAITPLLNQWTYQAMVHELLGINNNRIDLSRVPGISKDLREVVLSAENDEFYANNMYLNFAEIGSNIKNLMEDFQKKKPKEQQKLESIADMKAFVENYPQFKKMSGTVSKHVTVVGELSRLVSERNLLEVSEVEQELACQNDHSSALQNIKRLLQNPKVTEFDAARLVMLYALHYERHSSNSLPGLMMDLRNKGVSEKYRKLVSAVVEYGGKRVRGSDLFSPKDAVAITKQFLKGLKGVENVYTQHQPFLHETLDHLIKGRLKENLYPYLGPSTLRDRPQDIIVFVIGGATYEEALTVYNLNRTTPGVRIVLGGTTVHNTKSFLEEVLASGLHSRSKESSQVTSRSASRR
# UniProt Q9UGJ1, whole entry: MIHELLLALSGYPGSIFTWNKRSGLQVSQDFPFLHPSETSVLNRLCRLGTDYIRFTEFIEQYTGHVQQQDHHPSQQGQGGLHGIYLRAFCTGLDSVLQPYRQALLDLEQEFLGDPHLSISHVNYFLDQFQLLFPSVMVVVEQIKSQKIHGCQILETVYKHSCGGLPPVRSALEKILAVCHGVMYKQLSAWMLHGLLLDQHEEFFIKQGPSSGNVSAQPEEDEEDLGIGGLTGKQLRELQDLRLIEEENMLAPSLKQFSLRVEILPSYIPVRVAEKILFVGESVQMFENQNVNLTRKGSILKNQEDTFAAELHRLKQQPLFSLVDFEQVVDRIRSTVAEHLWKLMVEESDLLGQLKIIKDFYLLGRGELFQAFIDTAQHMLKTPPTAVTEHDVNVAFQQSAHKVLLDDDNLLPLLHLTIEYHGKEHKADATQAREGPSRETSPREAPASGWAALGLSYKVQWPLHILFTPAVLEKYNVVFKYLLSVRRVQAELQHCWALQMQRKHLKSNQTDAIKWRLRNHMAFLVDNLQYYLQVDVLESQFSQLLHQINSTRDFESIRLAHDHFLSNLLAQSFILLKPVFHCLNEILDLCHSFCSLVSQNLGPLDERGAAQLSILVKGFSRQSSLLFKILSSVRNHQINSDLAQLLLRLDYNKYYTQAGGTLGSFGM
# UniProt P10599: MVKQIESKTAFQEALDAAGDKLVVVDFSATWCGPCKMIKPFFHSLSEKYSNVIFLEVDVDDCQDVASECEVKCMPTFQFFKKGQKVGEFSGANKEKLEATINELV
# The other results are listed elsewhere or left out.
# Compound: COc1ccc(Cn2ccc3cc(C)c(C(=O)NO)cc32)cc1
# Test: dose-dependent thermal stabilisation call (2D-TPP, DLPTP, 10% FDR) (binary (1 = stabilised)); higher = stabilised by the compound
# Details: system: HL-60 intact cells; concentration range 0.04-10 µM
# Procedure: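 2D thermal proteome profiling in intact HL-60 cells treated with BRD-3811 (0, 0.04, 0.29, 2, 10 uM) for 90 min at 37 C, then heated 3 min at one of 12 temperatures (42-63.9 C). Soluble protein was quantified by TMT10 MS. The value is the DLPTP call of the paper: dose-dependent thermal stabilisation over all temperatures at 10% FDR (F-test of a dose-response against a flat model); one experiment, one call per tested protein.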
row,Target,dose-dependent thermal stabilisation call
1,TUFM (UniProt P49411),inactive: 0
2,TXNL1 (UniProt O43396),inactive: 0
3,WBSCR22 (UniProt O43709),inactive: 0
4,TTL (UniProt Q8NG68),inactive: 0
5,VAPA (UniProt Q9P0L0),inactive: 0
6,UMPS (UniProt P11172),inactive: 0
7,UNK (UniProt Q9C0B0),inactive: 0
8,USP5 (UniProt P45974),inactive: 0
9,TTC37 (UniProt Q6PGP7),inactive: 0
10,UQCRH (UniProt P07919),inactive: 0
11,URM1 (UniProt Q9BTM9),inactive: 0
12,VBP1 (UniProt P61758),inactive: 0
13,TWISTNB (UniProt Q3B726),inactive: 0
14,UTP15 (UniProt Q8TED0),inactive: 0
15,UBAC2 (UniProt Q8NBM4),inactive: 0
16,UQCRB (UniProt P14927),inactive: 0
17,UBE2S (UniProt Q16763),inactive: 0
18,VAMP8 (UniProt Q9BV40),inactive: 0
19,UBA2 (UniProt Q9UBT2),inactive: 0
20,WBP4 (UniProt O75554),inactive: 0

row,Target,dose-dependent thermal stabilisation call
1,UFC1 (UniProt Q9Y3C8),inactive: 0
2,VPS33B (UniProt Q9H267),inactive: 0
3,VPS26A (UniProt O75436),inactive: 0
4,TXN2 (UniProt Q99757),inactive: 0
5,USP4 (UniProt Q13107),inactive: 0
6,TUBGCP5 (UniProt Q96RT8),inactive: 0
7,UNC84B (UniProt Q9UH99),inactive: 0
8,VRK3 (UniProt Q8IV63),inactive: 0
9,VARS (UniProt P26640),inactive: 0
10,UAP1 (UniProt Q16222),inactive: 0
11,TXNL4B (UniProt Q9NX01),inactive: 0
12,UBE2Z (UniProt Q9H832),inactive: 0
13,UBR2 (UniProt Q8IWV8),inactive: 0
14,UQCC (UniProt Q9NVA1),inactive: 0
15,USF2 (UniProt Q15853),inactive: 0
16,UNC84A (UniProt O94901),inactive: 0
17,VPS45 (UniProt Q9NRW7),inactive: 0
18,TUBGCP4 (UniProt Q9UGJ1),inactive: 0
19,TXN (UniProt P10599),inactive: 0
20,TTRAP (UniProt O95551),inactive: 0

# Two entries picked at random from the list so far, as already listed:
row,Target,dose-dependent thermal stabilisation call
1,TUFM (UniProt P49411),inactive: 0
8,VRK3 (UniProt Q8IV63),inactive: 0
